# Laboratory results: paper PMC9574752
# T1: FLAG-OTUD6B isoform 1 (IF1) (UniProt Q8N6M0)
# T1 sequence: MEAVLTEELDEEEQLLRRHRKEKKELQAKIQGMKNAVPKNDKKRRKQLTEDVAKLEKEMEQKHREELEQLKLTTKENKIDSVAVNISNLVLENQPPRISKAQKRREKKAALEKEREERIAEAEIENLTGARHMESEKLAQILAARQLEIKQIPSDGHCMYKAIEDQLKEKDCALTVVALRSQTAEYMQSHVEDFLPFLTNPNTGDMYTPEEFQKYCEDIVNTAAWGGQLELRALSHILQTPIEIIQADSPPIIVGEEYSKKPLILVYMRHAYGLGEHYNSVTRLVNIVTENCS
# Experiments:
# [1] = target: myc-BioID2-OTUD6B fusion protein (UniProt Q8N6M0); assay: proximity labelling; BioID2: myc-BioID2-EV, myc-BioID2-OTUD6B-IF1 or -IF2 in HEK293T, 50 uM biotin for 16 h, modified RIPA lysis, strep-tactin resin, on-bead digestion, MS
# [2] = target: T1, FLAG-OTUD6B isoform 1 (IF1); assay: affinity purification with mass spectrometry; FLAG-OTUD6B or FLAG-EV in 2 x 10^9 HEK293T cells; FLAG M2 beads from whole cell extract (150 mM NaCl, 50 mM Tris-HCl pH 7.5, 0.1% NP-40), elution with 3xFLAG peptide, nanoLC-MS/MS, label-free quantification
binder,measurement,setting,value
"LIN28B, endogenous in HEK293T cells (protein, UniProt Q6ZN17 1-250) MAEGGASKGGGEEPGKLPEPAEEESQVLRGTGHCKWFNVRMGFGFISMINREGSPLDIPVDVFVHQSKLFMEGFRSLKEGEPVEFTFKKSSKGLESIRVTGPGGSPCLGSERRPKGKTLQKRKPKGDRCYNCGGLDHHAKECSLPPQPKKCHYCQSIMHMVANCPHKNVAQPPASSQGRQEAESQPCTSTLPREVGGGHGCTSPPFPQEARAEISERSGRSPQEASSTKSSIAPEEQSKKGPSVQKRKKT",binding,[1],binds
same,binding,[2],binds

# Results are given in words; binding and its absence hold for the method and conditions named. In cells and extracts the contact can be indirect. Here binding means that the protein was enriched with, or labelled near, the bait; the list need not be complete. For some assays here: Where a sequence is shown, tags or fusion partners need not be part of it.
